Measurements: the supplement of paper PMC10849652
The other results are listed elsewhere or left out.

Protein sequences, listed by entry. Tags and fused reporters are not part of them. Lines headed by an entry give the natural chain unless they say otherwise; changes in a name come on top.
UniProt Q15906, whole entry, looked up: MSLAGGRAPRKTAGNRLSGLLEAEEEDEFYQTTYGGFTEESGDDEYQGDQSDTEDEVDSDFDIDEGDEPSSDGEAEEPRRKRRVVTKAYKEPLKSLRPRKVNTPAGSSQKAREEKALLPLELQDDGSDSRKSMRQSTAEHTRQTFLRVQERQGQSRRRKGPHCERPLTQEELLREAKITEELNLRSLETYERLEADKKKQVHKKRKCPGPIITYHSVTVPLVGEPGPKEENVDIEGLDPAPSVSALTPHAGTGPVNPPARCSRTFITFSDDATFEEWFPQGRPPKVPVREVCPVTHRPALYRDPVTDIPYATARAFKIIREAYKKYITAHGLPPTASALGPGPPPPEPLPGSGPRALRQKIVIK
UniProt Q15007: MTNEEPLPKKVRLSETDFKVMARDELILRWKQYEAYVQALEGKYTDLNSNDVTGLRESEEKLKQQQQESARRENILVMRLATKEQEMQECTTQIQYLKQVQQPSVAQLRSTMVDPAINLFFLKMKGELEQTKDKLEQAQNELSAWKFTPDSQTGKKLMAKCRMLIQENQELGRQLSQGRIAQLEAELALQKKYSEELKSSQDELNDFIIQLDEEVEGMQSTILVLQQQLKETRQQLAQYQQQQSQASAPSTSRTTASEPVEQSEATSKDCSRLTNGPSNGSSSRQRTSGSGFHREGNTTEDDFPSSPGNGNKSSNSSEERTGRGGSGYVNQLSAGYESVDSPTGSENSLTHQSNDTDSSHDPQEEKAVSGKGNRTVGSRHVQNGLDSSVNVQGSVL
UniProt P30291: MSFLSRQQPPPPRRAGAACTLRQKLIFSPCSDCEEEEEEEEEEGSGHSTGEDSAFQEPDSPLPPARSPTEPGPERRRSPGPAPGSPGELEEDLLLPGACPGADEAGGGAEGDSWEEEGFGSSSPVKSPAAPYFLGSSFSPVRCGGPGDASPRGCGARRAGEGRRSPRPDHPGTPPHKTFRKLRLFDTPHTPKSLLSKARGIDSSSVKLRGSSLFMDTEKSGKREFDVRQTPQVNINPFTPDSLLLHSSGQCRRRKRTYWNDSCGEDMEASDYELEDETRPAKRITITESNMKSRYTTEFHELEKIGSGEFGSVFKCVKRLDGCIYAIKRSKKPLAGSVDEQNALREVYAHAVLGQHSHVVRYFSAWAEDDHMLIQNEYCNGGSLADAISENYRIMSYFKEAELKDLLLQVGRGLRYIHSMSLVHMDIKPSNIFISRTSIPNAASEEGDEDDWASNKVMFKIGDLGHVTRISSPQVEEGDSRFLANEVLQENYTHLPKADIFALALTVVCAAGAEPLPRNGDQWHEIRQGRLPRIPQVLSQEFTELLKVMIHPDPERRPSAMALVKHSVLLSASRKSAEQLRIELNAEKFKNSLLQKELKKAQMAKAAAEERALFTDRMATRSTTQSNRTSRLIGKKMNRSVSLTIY
UniProt Q9H9C1: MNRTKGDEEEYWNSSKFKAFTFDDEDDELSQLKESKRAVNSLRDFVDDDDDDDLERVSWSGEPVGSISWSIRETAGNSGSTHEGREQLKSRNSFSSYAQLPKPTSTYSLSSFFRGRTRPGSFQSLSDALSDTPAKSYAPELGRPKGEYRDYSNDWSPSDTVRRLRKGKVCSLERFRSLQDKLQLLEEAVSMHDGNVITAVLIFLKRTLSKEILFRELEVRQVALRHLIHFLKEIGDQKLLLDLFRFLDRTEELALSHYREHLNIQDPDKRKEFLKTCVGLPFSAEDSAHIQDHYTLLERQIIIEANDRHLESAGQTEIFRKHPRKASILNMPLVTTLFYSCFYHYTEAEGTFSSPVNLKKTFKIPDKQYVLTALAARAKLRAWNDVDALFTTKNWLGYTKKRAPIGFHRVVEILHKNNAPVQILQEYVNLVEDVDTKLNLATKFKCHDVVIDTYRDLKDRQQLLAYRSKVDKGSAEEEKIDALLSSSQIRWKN
UniProt Q8N2E2: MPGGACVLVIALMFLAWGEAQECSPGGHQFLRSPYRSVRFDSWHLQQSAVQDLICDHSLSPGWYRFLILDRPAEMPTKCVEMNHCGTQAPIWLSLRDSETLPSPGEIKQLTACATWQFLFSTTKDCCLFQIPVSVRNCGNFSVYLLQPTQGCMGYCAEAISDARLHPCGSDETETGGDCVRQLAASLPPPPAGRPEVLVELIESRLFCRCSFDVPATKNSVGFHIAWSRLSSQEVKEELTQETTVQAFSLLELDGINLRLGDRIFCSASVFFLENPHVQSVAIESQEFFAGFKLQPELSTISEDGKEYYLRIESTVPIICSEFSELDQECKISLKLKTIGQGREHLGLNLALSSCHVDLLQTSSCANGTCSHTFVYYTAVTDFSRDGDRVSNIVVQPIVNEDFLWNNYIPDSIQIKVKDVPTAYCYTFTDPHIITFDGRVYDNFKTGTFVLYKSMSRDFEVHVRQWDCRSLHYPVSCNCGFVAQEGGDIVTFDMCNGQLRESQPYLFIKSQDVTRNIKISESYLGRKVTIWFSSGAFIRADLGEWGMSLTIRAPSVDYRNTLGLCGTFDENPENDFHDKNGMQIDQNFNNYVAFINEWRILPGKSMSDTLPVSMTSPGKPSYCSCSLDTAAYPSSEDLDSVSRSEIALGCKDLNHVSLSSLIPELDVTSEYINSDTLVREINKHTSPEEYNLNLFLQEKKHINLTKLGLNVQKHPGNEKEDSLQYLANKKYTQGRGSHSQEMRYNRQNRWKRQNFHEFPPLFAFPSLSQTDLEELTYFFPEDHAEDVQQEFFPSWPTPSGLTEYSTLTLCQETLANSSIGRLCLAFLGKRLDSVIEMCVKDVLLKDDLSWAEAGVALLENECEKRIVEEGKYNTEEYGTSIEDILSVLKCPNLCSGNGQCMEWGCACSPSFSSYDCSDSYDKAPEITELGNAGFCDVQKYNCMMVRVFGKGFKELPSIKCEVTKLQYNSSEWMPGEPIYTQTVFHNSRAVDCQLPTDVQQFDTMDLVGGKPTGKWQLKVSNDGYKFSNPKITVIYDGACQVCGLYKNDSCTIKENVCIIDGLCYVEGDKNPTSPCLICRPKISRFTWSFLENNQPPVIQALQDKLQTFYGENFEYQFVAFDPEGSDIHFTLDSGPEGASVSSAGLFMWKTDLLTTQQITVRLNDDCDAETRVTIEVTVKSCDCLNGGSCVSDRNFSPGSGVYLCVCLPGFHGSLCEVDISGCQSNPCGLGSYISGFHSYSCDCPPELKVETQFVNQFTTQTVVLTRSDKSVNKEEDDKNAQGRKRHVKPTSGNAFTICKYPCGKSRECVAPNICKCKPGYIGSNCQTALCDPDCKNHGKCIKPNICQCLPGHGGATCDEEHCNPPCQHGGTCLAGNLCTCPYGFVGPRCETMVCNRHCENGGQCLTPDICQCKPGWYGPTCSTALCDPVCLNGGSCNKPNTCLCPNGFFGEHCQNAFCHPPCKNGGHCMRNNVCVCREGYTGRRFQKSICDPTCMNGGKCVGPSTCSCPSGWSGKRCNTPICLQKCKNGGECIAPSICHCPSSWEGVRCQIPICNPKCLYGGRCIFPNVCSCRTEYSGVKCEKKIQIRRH

How the values were obtained:
Assay in all cases: log2 fold change, soluble protein after heating vs DMSO (PISA); higher = thermal stabilisation; K562 cells, 10 uM, 30 min; active = over 0.2 and 3.5 SD of the protein, either way, in both replicates (recomputed)
[1] = compound: NC(=O)Nc1cc(-c2cccc(F)c2)sc1C(=O)N[C@H]1CCCNC1
Summary of the method: (§1)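 Values are thermal stability changes relative to control samples and are taken from duplicates. They are stated as log2 fold changes. Before quantification by TMTpro 16plex LC-MS/MS with equalised channel sums, K562 cells at 2×10^6 cells/mL were treated with 10 μM compound for 30 min, heated in aliquots for 3 min across 48°C-58°C, pooled, extracted in PBS with 0.5% NP-40 at 4°C, and centrifuged at 21,000xg for 90 min to give the soluble supernatant.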

[2] = compound: NC(=O)c1cnc(N[C@@H]2CCCC[C@@H]2N)nc1Nc1cccc(-n2nccn2)c1
Summary of the method: as §1

[3] = compound: NC1(c2ccc(-c3nc4ccn5c(=O)[nH]nc5c4cc3-c3ccccc3)cc2)CCC1
Summary of the method: as §1

[4] = compound: NCC(=O)Nc1ccc(-n2nc(C(F)(F)F)cc2-c2ccc3c(ccc4ccccc43)c2)cc1
Summary of the method: as §1

entinostat = compound: Nc1ccccc1NC(=O)c1ccc(CNC(=O)OCc2cccnc2)cc1 [entinostat]
Summary of the method: as §1

citarinostat = compound: O=C(CCCCCCNC(=O)c1cnc(N(c2ccccc2)c2ccccc2Cl)nc1)NO [citarinostat]
Summary of the method: as §1

silmitasertib = compound: O=C(O)c1ccc2c(c1)nc(Nc1cccc(Cl)c1)c1ccncc12 [silmitasertib]
Summary of the method: as §1

[5] = compound: O=C1NC(=O)C(c2cnc3ccccn23)=C1c1cn2c3c(cc(F)cc13)CN(C(=O)N1CCCCC1)CC2
Summary of the method: as §1

[6] = compound: c1cc(OCCN2CCCCC2)cc(-c2n[nH]c3ccc(-c4nnc[nH]4)cc23)c1
Summary of the method: as §1

entospletinib = compound: c1cn2cc(-c3ccc4cn[nH]c4c3)nc(Nc3ccc(N4CCOCC4)cc3)c2n1 [entospletinib]
Summary of the method: as §1

vorinostat = compound: O=C(CCCCCCC(=O)Nc1ccccc1)NO [vorinostat]
Summary of the method: as §1

Measured: log2 fold change

VPS72 isoform 2 (UniProt Q15906)
inactive: [1] 0.092 | [2] -0.226 | [3] -0.117 | [4] 0.037 | entinostat -0.032 | citarinostat 0.102 | silmitasertib 0.199 | [5] -0.157 | [6] -0.116

WTAP (UniProt Q15007)
inactive: [1] 0.03 | [2] -0.04 | [4] 0.069 | entinostat 0 | citarinostat 0.174 | [6] -0.142 | entospletinib 0.014

WEE1 (UniProt P30291)
inactive: [1] -0.455 | [2] 0.205 | [3] 0.04 | [4] -0.045 | entinostat 0.47 | vorinostat 0.05 | silmitasertib -0.122 | [5] 0.089

VIPAS39 (UniProt Q9H9C1)
inactive: [1] -0.41 | [2] -0.089 | [3] -0.567 | [4] 0.001 | entinostat 0.191 | silmitasertib -0.354

VWDE (UniProt Q8N2E2)
inactive: [1] -0.017 | [2] 0.039 | [3] 0.007 | [4] 0.06 | entinostat -0.018 | vorinostat 0.012 | citarinostat 0.04 | silmitasertib -0.001 | [5] -0.078 | [6] -0.082 | entospletinib -0.003
